# Assay results published in paper PMC5327418.
# Protein sequences, listed by entry. Tags and fused reporters are not part of them.
# UniProt P32569: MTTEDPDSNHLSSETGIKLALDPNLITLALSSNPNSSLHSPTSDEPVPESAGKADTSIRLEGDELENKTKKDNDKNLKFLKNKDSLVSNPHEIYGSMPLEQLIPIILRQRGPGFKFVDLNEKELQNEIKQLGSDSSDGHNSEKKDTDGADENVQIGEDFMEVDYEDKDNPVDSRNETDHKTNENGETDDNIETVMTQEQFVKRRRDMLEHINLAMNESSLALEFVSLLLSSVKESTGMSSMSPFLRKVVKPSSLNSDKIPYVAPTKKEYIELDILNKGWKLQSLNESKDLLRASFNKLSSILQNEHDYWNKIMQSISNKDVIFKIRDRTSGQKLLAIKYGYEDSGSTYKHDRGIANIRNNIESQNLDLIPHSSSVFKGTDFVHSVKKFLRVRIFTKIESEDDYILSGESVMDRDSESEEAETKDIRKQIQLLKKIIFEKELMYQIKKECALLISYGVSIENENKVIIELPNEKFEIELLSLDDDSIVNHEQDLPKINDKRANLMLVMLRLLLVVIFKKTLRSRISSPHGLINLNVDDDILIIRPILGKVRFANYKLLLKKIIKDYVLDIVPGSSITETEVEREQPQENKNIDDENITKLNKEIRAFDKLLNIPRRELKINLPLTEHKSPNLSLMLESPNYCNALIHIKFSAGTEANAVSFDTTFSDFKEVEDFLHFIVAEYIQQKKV
# Results are given in words; binding and its absence hold for the method and conditions named. In cells and extracts the contact can be indirect. These calls come from enrichment with a bait or labelling near it, and not all partners need be listed.
# Biological target: Med17-HA (S. cerevisiae (endogenous in S288c)) (UniProt P32569)
# Test: affinity purification with mass spectrometry; CoIP of Med17-HA on anti-HA magnetic beads from cryoground yeast lysate, 2 h at 4 °C; 20 mM HEPES pH 7.5, 300 mM KOAc, 10% glycerol, 0.01% NP-40, 6 mM MnSO4, 1 mM DTT, Cyanase nuclease; parallel control CoIP from 15N-labelled wild type cells, mixing after purification (MAP); GeLC-MS/MS, three biological replicates
row,binding,Binder
1,binds,"Rsc9 (protein, UniProt Q03124 1-581) MNSLASNTPLNGTPVSEAPATSSEPVNMFETMVANPIKVSRLQSNGVLTGPAANTKSIHYSLANFNVFQSLPKETARGVDDLTRMEMALLSGIPEEIKWSLKKYLTYSNKAPYMISLRTLPDLLPLFKTFILPLERIVEGLNKSSICDSKAMDSLQMGLNALLILRNLAQDTDSVQILVKDREIKSFILFILKKFQCVATGDNKWQLYEGNATFFNELTHYTLDLMEAISSYIAPAMKDDHYFQTLVSILNYTKDRYMVISILRSLSRLLVRSKANEESAADNLDHKTLSLIVSFLLLECDSELIIASLDFLYQYILPGSQRITELFKSKECSLILEATLPNLLSYNIATPDYHLLQKHKIRLIKRLKPPAPKEPPNLSEDLFQQLFKLNEPLRSTAWLRCCFEPVQEAEFTQISLWRSYESKFGQPVRESGRKLLPAVEFIKNVSNAFNNAAAIVITDPVTGKKRFVIKGIQPRFKALGIADGERESQVPISALKSKFLNDSKEITPARQNSIPEVKFPQELSDVSKVACTFLCLLSNDTDDGAGSAFCQRIRPLVLHKLADIPPLTLALSEYMENTSGL"
2,binds,"Arp4 (protein, UniProt P80428 1-489) MSNAALQVYGGDEVSAVVIDPGSYTTNIGYSGSDFPQSILPSVYGKYTADEGNKKIFSEQSIGIPRKDYELKPIIENGLVIDWDTAQEQWQWALQNELYLNSNSGIPALLTEPVWNSTENRKKSLEVLLEGMQFEACYLAPTSTCVSFAAGRPNCLVVDIGHDTCSVSPIVDGMTLSKSTRRNFIAGKFINHLIKKALEPKEIIPLFAIKQRKPEFIKKTFDYEVDKSLYDYANNRGFFQECKETLCHICPTKTLEETKTELSSTAKRSIESPWNEEIVFDNETRYGFAEELFLPKEDDIPANWPRSNSGVVKTWRNDYVPLKRTKPSGVNKSDKKVTPTEEKEQEAVSKSTSPAANSADTPNETGKRPLEEEKPPKENNELIGLADLVYSSIMSSDVDLRATLAHNVVLTGGTSSIPGLSDRLMTELNKILPSLKFRILTTGHTIERQYQSWLGGSILTSLGTFHQLWVGKKEYEEVGVERLLNDRFR"
3,binds,"Ies1 (protein, UniProt P43579 1-692) MGKRVYDPIHDTFQLREDNSDETKADSPMQSVKSGSQEEASPSSIQSETETVTTKSIPVIHEIEIDDKNDDDSTQSEEENTNILLNFEPSTVPEATGASTATGPVTTNTVRRKPKESNASKYNRHLKKPDGEPFNRKDIQFSFMQELLMDKRQIFTNVLKPLYKNSIVPINIDGDKLSINVTDKEYDARTFVFNDKLTFAQLYVLTIATSIKCSKILRDKLLLDQQVAFSTCVLALLVNIGRLNTTINFYLEMTSQLRTFHSVPVLQLHANDPKLLQDTPRLKSILKNLPWGNEQLSLMETYKKVDQNDGEVDTVNKFNIINMLFSICDNSGLIDKRFLSKYVEVESKAQEQDMVDEQNEVKETEAENEKQESKAAYATTLFDILDYSKYEPKDRSNILIWLLYIHLETNLSQEEVEESVRFFNGLEDGAPAGKFILRCTERSYDTDPEDELEFGANQRIKRREFMSKMEEGRKRERTNVTEVKKPSIGGDKSEEDGEGEDDKSEETVEETRSLLTPTPILESSSPMTLNRKKVTPQLPKVTPAAPTETEEEITSAAIIDKNDLNLTPLKKYNSSATVNKVDKLISLDLNKHVSENGKTQEEFLADLKKSQVPNRLKRRDIGLIKIFNEFEDIPVASVLGIRGKKRKKFKDNLLGFETDFMKNLGASKKVLLNKIERAEIDDEEATAMFKLE"
4,binds,"Tfc3 (protein, UniProt P34111 1-1160) MVLTIYPDELVQIVSDKIASNKGKITLNQLWDISGKYFDLSDKKVKQFVLSCVILKKDIEVYCDGAITTKNVTDIIGDANHSYSVGITEDSLWTLLTGYTKKESTIGNSAFELLLEVAKSGEKGINTMDLAQVTGQDPRSVTGRIKKINHLLTSSQLIYKGHVVKQLKLKKFSHDGVDSNPYINIRDHLATIVEVVKRSKNGIRQIIDLKRELKFDKEKRLSKAFIAAIAWLDEKEYLKKVLVVSPKNPAIKIRCVKYVKDIPDSKGSPSFEYDSNSADEDSVSDSKAAFEDEDLVEGLDNFNATDLLQNQGLVMEEKEDAVKNEVLLNRFYPLQNQTYDIADKSGLKGISTMDVVNRITGKEFQRAFTKSSEYYLESVDKQKENTGGYRLFRIYDFEGKKKFFRLFTAQNFQKLTNAEDEISVPKGFDELGKSRTDLKTLNEDNFVALNNTVRFTTDSDGQDIFFWHGELKIPPNSKKTPNKNKRKRQVKNSTNASVAGNISNPKRIKLEQHVSTAQEPKSAEDSPSSNGGTVVKGKVVNFGGFSARSLRSLQRQRAILKVMNTIGGVAYLREQFYESVSKYMGSTTTLDKKTVRGDVDLMVESEKLGARTEPVSGRKIIFLPTVGEDAIQRYILKEKDSKKATFTDVIHDTEIYFFDQTEKNRFHRGKKSVERIRKFQNRQKNAKIKASDDAISKKSTSVNVSDGKIKRRDKKVSAGRTTVVVENTKEDKTVYHAGTKDGVQALIRAVVVTKSIKNEIMWDKITKLFPNNSLDNLKKKWTARRVRMGHSGWRAYVDKWKKMLVLAIKSEKISLRDVEELDLIKLLDIWTSFDEKEIKRPLFLYKNYEENRKKFTLVRDDTLTHSGNDLAMSSMIQREISSLKKTYTRKISASTKDLSKSQSDDYIRTVIRSILIESPSTTRNEIEALKNVGNESIDNVIMDMAKEKQIYLHGSKLECTDTLPDILENRGNYKDFGVAFQYRCKVNELLEAGNAIVINQEPSDISSWVLIDLISGELLNMDVIPMVRNVRPLTYTSRRFEIRTLTPPLIIYANSQTKLNTARKSAVKVPLGKPFSRLWVNGSGSIRPNIWKQVVTMVVNEIIFHPGITLSRLQSRCREVLSLHEISEICKWLLERQVLITTDFDGYWVNHNWYSIYEST"
5,binds,"Tfc1 (protein, UniProt P32367 1-649) MPVEEPLATLSSIPDSSADQAPPLIADEFTLDLPRIPSLELPLNVSTKHSSIQKAIKMCGGIEKVKEAFKEHGPIESQHGLQLYLNDDTDSDGSKSYFNEHPVIGKRVPFRDESVILKVTMPKGTLSKNNNSVKDSIKSLKDSNKLRVTPVSIVDNTIKFREMSDFQIKLDNVPSAREFKSSFGSLEWNNFKSFVNSVPDNDSQPQENIGNLILDRSVKIPSTDFQLPPPPKLSMVGFPLLYKYKANPFAKKKKNGVTEVKGTYIKNYQLFVHDLSDKTVIPSQAHEQVLYDFEVAKKTKVYPGTKSDSKFYESLEECLKILRELFARRPIWVKRHLDGIVPKKIHHTMKIALALISYRFTMGPWRNTYIKFGIDPRSSVEYAQYQTEYFKIERKLLSSPIVKKNVPKPPPLVFESDTPGGIDSRFKFDGKRIPWYLMLQIDLLIGEPNIAEVFHNVEYLDKANELTGWFKELDLVKIRRIVKYELGCMVQGNYEYNKYKLKYFKTMLFVKESMVPENKNSEEGMGVNTNKDADGDINMDAGSQMSSNAIEEDKGIAAGDDFDDNGAITEEPDDAALENEEMDTDQNLKVPASIDDDVDDVDADEEEQESFDVKTASFQDIINKIAKLDPKTAETMKSELKGFVDEVDL"
6,binds,"Swi1 (protein, UniProt P09547 1-1314) MDFFNLNNNNNNNNTTTTTTTTNNNNTNNNNTNNNNNPANNTNNNNSTGHSSNTNNNTNNNNTNTGASGVDDFQNFFDPKPFDQNLDSNNNNSNSNNNDNNNSNTVASSTNFTSPTAVVNNAAPANVTGGKAANFIQNQSPQFNSPYDSNNSNTNLNSLSPQAILAKNSIIDSSNLPLQAQQQLYGGNNNNNSTGIANDNVITPHFITNVQSISQNSSSSTPNTNSNSTPNANQQFLPFNNSASNNGNLTSNQLISNYAASNSMDRSSSASNEFVPNTSDNNNNSNNHNMRNNSNNKTSNNNNVTAVPAATPANTNNSTSNANTVFSERAAMFAALQQKQQQRFQALQQQQQQQQNQQQQNQQPQQQQQQQQNPKFLQSQRQQQQRSILQSLNPALQEKISTELNNKQYELFMKSLIENCKKRNMPLQSIPEIGNRKINLFYLYMLVQKFGGADQVTRTQQWSMVAQRLQISDYQQLESIYFRILLPYERHMISQEGIKETQAKRIFLQQFLQELLKKVQQQQQAAALANANNNINSASSAPTPAAPGASVPATAAPGTEAGIVPVSANTPKSLNSNININVNNNNIGQQQVKKPRKQRVKKKTKKELELERKEREDFQKRQQKLLEDQQRQQKLLLETKLRQQYEIELKKLPKVYKRSIVRNYKPLINRLKHYNGYDINYISKIGEKIDSNKPIFLFAPELGAINLHALSMSLQSKNLGEINTALNTLLVTSADSNLKISLVKYPELLDSLAILGMNLLSNLSQNVVPYHRNTSDYYYEDAGSNQYYVTQHDKMVDKIFEKVNNNATLTPNDSNDEKVTILVDSLTGNQLPTPTPTEMEPDLDTECFISMQSTSPAVKQWDLLPEPIRFLPNQFPLKIHRTPYLTSLKKIKDEIDDPFTKINTRGAEDPKVLINDQLSTISMILRNISFSDNNSRIMSRNFYLKRFISDLLWLVLIHPENFTCNRKILNFKKDLVIVLSNISHLLEIASSIDCLLILILVISFGQPKLNPMASSSSFGSESLTFNEFQLQWGKYQTFGVDILAKLFSLEKPNLNYFKSILLNKNTGNNLYDRNSNNNHKDKKLLRRLLNLYNDNNKNNNNRHNLLNDVVSFLFSAIPLQQVLSQSADPSLLIDQFSPVISQSLTSILVIVQKILPLSNEVFEISENNSDSNSNNNGNKDSSFNFNKNLPFVWLSSEENIGSGLLKLSEIILNINNSTSKNTLLQQQNYSKVLLPSINISCVQLIKCLVEKSICFENCLNNDPEILKKIASIPNLFPTDLEIFQLFTNPSVDIQIINQYQLLYNLKNDILTNLE"
7,binds,"Gcr1 (protein, UniProt P07261 1-785) MVCTSTSSNFYSIAQYILQSYFKVNVDSLNSLKLVDLIVDQTYPDSLTLRKLNEGATGQPYDYFNTVSRDADISKCPIFALTIFFVIRWSHPNPPISIENFTTVPLLDSNFISLNSNPLLYIQNQNPNSNSSVKVSRSQTFEPSKELIDLVFPWLSYLKQDMLLIDRTNYKLYSLCELFEFMGRVAIQDLRYLSQHPLLLPNIVTFISKFIPELFQNEEFKGIGSIKNSNNNALNNVTGIETQFLNPSTEEVSQKVDSYFMELSKKLTTENIRLSQEITQLKADMNSVGNVCNQILLLQRQLLSGNQAIGSKSENIVSSTGGGILILDKNSINSNVLSNLVQSIDPNHSKPNGQAQTHQRGPKGQSHAQVQSTNSPALAPINMFPSLSNSIQPMLGTLAPQPQDIVQKRKLPLPGSIASAATGSPFSPSPVGESPYSKRFKLDDKPTPSQTALDSLLTKSISSPRLPLSTLANTAVTESFRSPQQFQHSPDFVVGGSSSSTTENNSKKVNEDSPSSSSKLAERPRLPNNDSTTSMPESPTEVAGDDVDREKPPESSKSEPNDNSPESKDPEKNGKNSNPLGTDADKPVPISNIHNSTEAANSSGTVTKTAPSFPQSSSKFEIINKKDTKAGPNEAIKYKLSRENKTIWDLYAEWYIGLNGKSSIKKLIENYGWRRWKVSEDSHFFPTRRIIMDYIETECDRGIKLGRFTNPQQPREDIRKILVGDLEKFRINNGLTLNSLSLYFRNLTKNNKEICIFENFKNWNVRSMTEEEKLKYCKRRHNTPS"
8,binds,"Rt102 (protein, UniProt P53330 1-157) MDPQTLITKANKVSYYGNPTSKESWRYDWYQPSKVSSNVQQPQQQLGDMENNLEKYPFRYKTWLRNQEDEKNLQRESCEDILDLKEFDRRILKKSLMTSHTKGDTSKATGAPSANQGDEALSVDDIRGAVGNSEAIPGLSAGVNNDNTKESKDVKMN"
